The test system of one series is MYC 1-163. Put plainly: fluorescence anisotropy. The note with it: residues 1-163.
In series [1] the test system is MYC 25-mer peptides around MYCBox IV (RBRIII). Put plainly: peptide microarray. To be noted: strongest of the four regions.
Series [2] relates to MYC 25-mer peptides around MYCBox I. Put plainly: peptide microarray.
Series [3] has as its system MYC 25-mer peptides close to MYCBox II. Put plainly: peptide microarray.
Series [4] relates to MYC 25-mer peptides of the basic region (BR). As to the kind of experiment: peptide microarray.

Construct, isoform or probe ends are uncertain for at least one entry. For some assays here: At least one verdict was read from the data and is not stated in words by the source.

In the case of “GUGCAUGGGCAUGUGUGCUGUGUGUGUGCAGGCGACCGUAAACA [PTDSS2 RNA oligo]”, the binding result with MYC 1-163 was “binds”.
“UGGGCCUGGAAUAGUGGGGGCCCAGGGGAAGCUGCGAUGUGCUUCUGAGUGUUUGGAACGAG [Cy5 RNA for peptide array]”: the binding result in series [1], in series [2], in series [3] and in series [4] was “binds” throughout.

The record behind these values is publication doi:10.1101/2024.12.06.627168.
